Laboratory results taken from patent publication US10758467B2, “Highly substantive water-soluble UV absorbers and process for preparation thereof” (GALAXY SURFACTANTS LTD., priority 2018, dated 2020).

Test: Substantivity to hair through rinse-off conditioner formulation (deposition on hair, re-extracted and quantified by UV spectroscopy)
Details: for Relative Substantivity: rinse-off conditioner with equimolar quantities (0.0015 gmoles) of UV absorber, 1.5 g hair tress, extracted by hot ethanol, UV spectroscopy; for deposition on hair: rinse-off conditioner, UV spectroscopic analysis

SMILES | Relative Substantivity | deposition on hair
CCCCCCCCCCCCCCCCCC[N+](C)(C)CC(O)C[N+](C)(C)CCCNC(=O)/C=C/c1ccc(OC)cc1 (stereo not shown) [Example 4, p-methoxy cinnamidopropyl (2-hydroxypropyl stearyl dimethyl ammonium chloride) dimonium chloride] | 1.50 Mg/1.5 g of hair | 1.5 mg/1.5 g of hair
COc1ccc(C=CC(=O)NCCC[N+](C)(C)C)cc1.[Cl-] [Example 6, p-methoxy cinnamidopropyl trimethyl ammonium chloride] | 0.65 Mg/1.5 g of hair | 0.65 mg/1.5 g of hair
COc1ccc(/C=C/C(=O)NCCC[N+](C)(C)CC(O)CS(=O)(=O)[O-])cc1 (stereo not shown) [Galaxy SunBeat, 3-(N-p-methoxycinnamidopropyl-N,N-dimethylammonium)-2-hydroxypropane-1-sulphonate, reference compound] | 0.75 Mg/1.5 g of hair | –
C[N+](C)(C)CCCNC(=O)/C=C/c1ccccc1 [Incroquat UV 283, cinnamidopropyl trimethyl ammonium chloride, reference compound] | 0.6 Mg/1.5 g of hair | 0.65 mg/1.5 g of hair
